These are yes or no findings as the source states them, for the method shown. Some entries that bind do so weakly or less than the wild type.
B1: ACTB (Y240) phosphopeptide … (peptide)
peptide: SLEKSYELPDG
modifications: phosphotyrosine at the central Y (Y240)
B2: CLIP2 (Y972) phosphopeptide … (peptide)
peptide: SDQRRYSLIDP
modifications: phosphotyrosine at the central Y (Y972)
B3: CLIP2 (Y972) phosphopeptide … (peptide)
peptide: SDQRRYSLIDR
modifications: phosphotyrosine at the central Y (Y972)
B4: CBS (Y308) phosphopeptide … (peptide)
peptide: VEGIGYDFIPT
modifications: phosphotyrosine at the central Y (Y308)
B5: CBS (Y308) phosphopeptide … (peptide)
peptide: VEGISYDFIPT
modifications: phosphotyrosine at the central Y (Y308)
B6: ACTB (Y240) phosphopeptide … (peptide)
peptide: SLEKSYELLDG
modifications: phosphotyrosine at the central Y (Y240)
B7: ACTA1 (Y171) phosphopeptide … (peptide)
peptide: PIFEGYALPHA
modifications: phosphotyrosine at the central Y (Y171)
B8: ACTA1 (Y171) phosphopeptide … (peptide)
peptide: PIFEGYGLPHA
modifications: phosphotyrosine at the central Y (Y171)

The chains behind the UniProt entries cited, without tags or fusion partners. Residues count along the entry.
UniProt P06241, residues 142-248: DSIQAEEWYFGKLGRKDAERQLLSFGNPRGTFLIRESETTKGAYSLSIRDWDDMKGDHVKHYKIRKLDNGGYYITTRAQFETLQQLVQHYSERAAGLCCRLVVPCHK

Target: Fyn SH2 domain (142-248) (human) (UniProt P06241)
Test: fluorescence polarisation; competition mode: unlabelled phosphopeptide competes with the probe FITC-Ahx-GDG(pY)EEISPLLL for the purified SH2 domain; as in ref. 33; both purified

| Binder | binding |
| --- | --- |
| B1 | binds |
| B2 | binds |
| B3 | binds |
| B4 | binds |
| B5 | binds |
| B6 | binds |

Target: c-Src SH2 domain (UniProt P12931)
Test: as above

| Binder | binding |
| --- | --- |
| B7 | binds |
| B1 | binds |
| B2 | binds |
| B3 | binds |
| B4 | binds |
| B5 | binds |
| B8 | binds |
| B6 | binds |

Source: doi:10.1101/2024.12.23.630085, “Accurate sequence-to-affinity models for SH2 domains from multi-round peptide binding assays coupled with free-energy regression” (bioRxiv, 2025)
